# Measurements reported in PubChem BioAssay AID1259254 (NCATS, 2017).
# Test: 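Genome-wide screen for genes that prevent DNA re-replication in cancer cells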 (primary screen)
# Cell system: human HCT116 colorectal cancer cells
# Knock-down reagent: single siRNA against human genes
# Duration: 3 days
# Detection: 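Nuclei stained with Hoechst and imaged; cell-cycle phase assigned by DNA content; G2 share scaled per plate, non-targeting siRNA 0%, GMNN siRNA 100%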
# Direction: G2 robust z-score and G2 cells, % of GMNN control: higher = more G2 cells, more excess DNA replication
# Rule for the call: 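Active siRNAs have a G2 robust z of 5 or more median absolute deviations over the median, which in these data means about 38% or higher of GMNN control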
# Shown is one part, drawn at random, of about 59,000 reagents. Over the whole deposit, about 1,550 (2.6%) are marked active. 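G2 share is only a proxy for re-replication; each gene was hit by three separate siRNAs, and active genes were retested.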 The numbers tell different reagents against one gene apart. Further read-outs or replicates are left out here. The record does not give: the amount of reagent.
target,siRNA no.,G2 robust z-score,"G2 cells, % of GMNN control",activity call
UBA6,1,-0.795,-2.63,inactive
UBA6,2,-0.0866,2.36,inactive
UBA6,3,-0.85,-3.01,inactive
TSPAN33,1,-0.717,-2.08,inactive
TSPAN33,2,1.35,12.5,inactive
TSPAN33,3,2.05,17.4,inactive
GLTPP1,1,-0.993,-4.02,inactive
GLTPP1,2,-0.397,0.175,inactive
GLTPP1,3,-0.561,-0.979,inactive
LIF,1,2.82,22.8,inactive
LIF,2,7.2,53.6,active
LIF,3,-0.568,-1.03,inactive
HIP1,1,-0.609,-1.32,inactive
HIP1,2,-0.584,-1.14,inactive
HIP1,3,-0.254,1.18,inactive
PTGES,1,0.697,7.87,inactive
PTGES,2,-1.3,-6.18,inactive
PTGES,3,-0.94,-3.65,inactive
OR1N1,1,-0.658,-1.67,inactive
OR1N1,2,1.75,15.3,inactive
OR1N1,3,-0.537,-0.808,inactive
PDE3A,1,1.16,11.1,inactive
PDE3A,2,0.119,3.8,inactive
PDE3A,3,2.46,20.3,inactive
NMD3,1,-0.986,-3.97,inactive
NMD3,2,0.179,4.22,inactive
NMD3,3,0.946,9.62,inactive
GJC3,1,-0.45,-0.201,inactive
GJC3,2,-0.565,-1.01,inactive
GJC3,3,5.98,45,active
RNF19A,1,-0.0437,2.66,inactive
RNF19A,2,1.89,16.3,inactive
RNF19A,3,-0.894,-3.32,inactive
RETN,1,0.458,6.19,inactive
RETN,2,0.105,3.71,inactive
RETN,3,-0.722,-2.12,inactive
KIF19BP,1,-0.287,0.952,inactive
KIF19BP,2,0.153,4.05,inactive
KIF19BP,3,-1.04,-4.33,inactive
BIRC3,1,-1.22,-5.61,inactive
BIRC3,2,0.772,8.4,inactive
BIRC3,3,-0.0377,2.7,inactive
MYMK,1,-0.303,0.838,inactive
MYMK,2,-0.596,-1.23,inactive
MYMK,3,-0.136,2.01,inactive
TRIM6,1,0.308,5.14,inactive
TRIM6,2,2.25,18.8,inactive
TRIM6,3,-0.62,-1.4,inactive
CFAP141,1,-0.915,-3.47,inactive
CFAP141,2,0.939,9.58,inactive
CFAP141,3,-0.417,0.0323,inactive
BTLA,1,-0.604,-1.28,inactive
BTLA,2,4.04,31.4,inactive
BTLA,3,-0.42,0.0158,inactive
RNF7,1,-0.388,0.236,inactive
RNF7,2,0.135,3.92,inactive
RNF7,3,2.77,22.5,inactive
CYBC1,1,-0.0852,2.37,inactive
CYBC1,2,-0.547,-0.88,inactive
CYBC1,3,-0.365,0.4,inactive
LOC150519 (retired record),1,0.678,7.74,inactive
LOC150519 (retired record),2,0.414,5.88,inactive
LOC150519 (retired record),3,-0.065,2.51,inactive
LINC02610,1,0.508,6.54,inactive
LINC02610,2,-0.865,-3.12,inactive
LINC02610,3,4.24,32.8,inactive
PRB3,1,0.0973,3.65,inactive
PRB3,2,-0.441,-0.133,inactive
PRB3,3,0.497,6.46,inactive

Only “G2 cells, % of GMNN control”, for 6 of the entries above:
KIF19BP #2	4.05
KIF19BP #3	-4.33
BIRC3 #1	-5.61
BIRC3 #2	8.4
BIRC3 #3	2.7
MYMK #1	0.838
